# Hit rate of the full screen: of about 53,000 sequences, about 3,700 (7%) were called active.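 Rule for the calls: active = gene knockdowns whose robust z-score for IL-1 alpha signal is at least 2 or at most -2, so actives lie on both sides; inactive = the rest.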 The list shows a part of the results.
# Test: Components of the Cytosolic LPS Sensing Pathway: Gene Identification via Genome-wide siRNA Screen;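 note: robust z of the log signal after scaling to non-targeting control siRNA wells of the plate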
# Conditions: RAW264.7 macrophages, IL-1a HTRF, actives lie on both sides, screened at 100 nM (by protocol), cells primed 5 h with Pam3CSK4 first
# How it was run: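 RAW264.7 mouse macrophages reverse-transfected with single siRNAs (100 nM final) for 48h, primed with Pam3CSK4 for 5 hours, then transfected with LipidA for 24 hour. Supernatant IL-1a read by HTRF; values normalized to negative-control median, log-transformed robust z-scores.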
row,Sequence,z-score
1,GGAAGAGCAUAUGGAAGACTT against Nxf7,inactive: 0.362
2,CGGUAGCCGGUCUUGGUGGTT against H2ac18,inactive: 0.242
3,CGGCGGUGUGUUGUUUUAGTT against Hmces,inactive: 0.36
4,GGUUCCAGUCUUUAAUUUCTT against Tpst1,inactive: 0.724
5,GGGUUACCAGACUAACAAATT against Stfa3,inactive: 0.763
6,GGACAAGGAGGAUUUCUUCTT against Nprl2,inactive: -0.226
7,GGGCUGUUCUACUUAGUUATT against N6amt1,inactive: 0.573
8,GGAAGACAAUCGCUGCGUGTT against Tet3,inactive: 0.927
9,GCCAGGAGUCCUUUAGGAATT against Tmem159,inactive: -0.184
10,GCCCAGUUCAACGGUGAAUTT against Zbtb1,inactive: -0.671
11,GGAACAAAUUCUGGAGUUGTT against Zfp287,inactive: 0.791
12,GGUGUCCAAUAUUUUGAAGTT against Zfp120,inactive: -0.839
13,GCGAAGAAUGCAUCCUAAUTT against Rspo3,inactive: -0.912
14,GGACAGUUUAAGGACAACATT against Morn2,inactive: 0.18
15,GGAUAAAUGGUACAUUCAGTT against Coa7,inactive: 0.958
16,AAAGAGAUUGGAAAUCUUCTT against Ipcef1,inactive: -0.449
17,GGACAUGUUUGUGUUAAAGTT against Ctnna1,inactive: 0.187
18,GGAGCUGUUUGGACCUUCUTT against Adamtsl4,inactive: -0.662
19,GGUGAUUGUCAAGAUUAUGTT against Olfr651,active: -2.1
20,GGGACAAGUGACUGAAUUGTT against Dio3,inactive: 0.408
21,CCUAGACAAAGUUUCAAACTT against Xrcc4,inactive: -0.662
22,GGACAAGAUGGUGUCUAUCTT against Olfr1396,inactive: 0.566
23,GGCAUCGUAGGAUUUUUUGTT against Mtch2,inactive: -0.229
24,GCAACAUAAAAGAUUCUUGTT against Il1f5,inactive: 0.424
25,GGGCCUAUCUGAAAGUUUATT against Nrm,inactive: -0.262
26,GGUUCAGAACCAGUCCAUCTT against Gdpd5,inactive: -1.38
27,CCCAUGAAGAUUGUAAGUCTT against Nol12,inactive: -0.201
28,GGAAAGACCUCUUGAUAGGTT against Tbkbp1,inactive: 0.113
29,CCAAUCAUGUGGAUAUUUATT against Syngr3,inactive: -0.122
30,GGAUUUGUAGUUCAUCUCATT against Olfr77,inactive: 0.0834

# A different layout for part of the listing above.
row	Sequence	z-score
10	GCCCAGUUCAACGGUGAAUTT against Zbtb1	inactive: -0.671
18	GGAGCUGUUUGGACCUUCUTT against Adamtsl4	inactive: -0.662
